Tested on: antisera used in the assay
Assay: Cross reaction in the acyclovir radioimmunoassay

| Structure (SMILES) | cross reaction with the antisera used in the radioimmunoassay |
| --- | --- |
| Nc1nc(N)c2ncn(COCCO)c2n1 [aminoacyclovir, 2,6-diamino-9-(2-hydroxyethoxymethyl)purine, reference compound] | neither aminoacyclovir nor 6-deoxyacyclovir cross reacted |
| Nc1ncc2ncn(COCCO)c2n1 [6-deoxyacyclovir, 2-Amino-9-(2-hydroxyethoxymethyl)purine] | neither aminoacyclovir nor 6-deoxyacyclovir cross reacted |

— patent US4695570A, “Antiviral compound use” (Burroughs Wellcome Co., priority 1985, dated 1987)
